In paper PMC4974476, “Structural basis for LIN54 recognition of CHR elements in cell cycle-regulated promoters”:

Molecular target: T1, LIN54 DBD-N (Homo sapiens) (UniProt Q6MZP7)
T1 sequence (looked up): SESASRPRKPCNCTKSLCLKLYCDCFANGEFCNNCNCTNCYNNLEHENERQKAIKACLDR
Assay: NMR HSQC titration
Details: 35 mM MES, 75 mM NaCl, pH 6.0, 25 C, NMR: 35 mM MES, 5% D2O, recombinant protein, residues 515-574, protein details: N-terminal GST with TEV site, cleaved

## GAGTTTGAAACTG (double strand) [CHR13]
  binding result: binds more weakly

Weaker means in comparison with the reference protein, sequence or condition of that experiment. Protein sequences can lack the tags named with them.
